{"source": "paper PMC5247571", "about": "(International Journal for Parasitology: Drugs and Drug …, 2017)", "test_system": "blowfly larvae (Lucilia cuprina)", "assay": "Blowfly larval bioassay", "format": "in vivo", "details": "L. cuprina LS strain; number of pupae on Day 9 vs controls; 2 experiments"}
{"smiles": "O=C(CCCCCCC(=O)Nc1ccccc1)NO", "note": "[SAHA, suberoylanilide hydroxamic acid]", "values": [{"measurement": "Blowfly bioassay, pupation, IC50", "result": ">1000", "unit": "μg/assay"}]}
